Test results from the supplement of paper PMC10849652.
This is one part of the list.

By UniProt entry, the sequences of proteins in these tests, tags left out. Where a name states a change or a piece, a line headed by the entry shows the natural chain unless it says otherwise.
UniProt P17028: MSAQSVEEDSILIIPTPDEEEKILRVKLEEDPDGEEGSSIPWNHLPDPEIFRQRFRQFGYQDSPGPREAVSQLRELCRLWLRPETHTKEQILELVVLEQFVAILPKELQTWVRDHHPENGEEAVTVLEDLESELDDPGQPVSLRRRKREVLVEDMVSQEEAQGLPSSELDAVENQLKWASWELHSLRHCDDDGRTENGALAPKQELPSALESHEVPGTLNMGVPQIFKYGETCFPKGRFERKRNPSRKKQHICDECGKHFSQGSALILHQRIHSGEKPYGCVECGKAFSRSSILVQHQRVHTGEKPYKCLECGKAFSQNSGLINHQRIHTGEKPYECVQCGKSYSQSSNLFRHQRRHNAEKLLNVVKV
UniProt O95619, whole entry, looked up: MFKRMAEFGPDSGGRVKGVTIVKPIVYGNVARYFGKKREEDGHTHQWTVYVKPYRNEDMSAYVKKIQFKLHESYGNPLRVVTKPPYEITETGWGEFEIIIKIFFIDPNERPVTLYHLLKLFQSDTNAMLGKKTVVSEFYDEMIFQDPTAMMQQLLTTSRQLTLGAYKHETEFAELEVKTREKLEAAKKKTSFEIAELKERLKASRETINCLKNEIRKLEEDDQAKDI
UniProt Q9Y5A9: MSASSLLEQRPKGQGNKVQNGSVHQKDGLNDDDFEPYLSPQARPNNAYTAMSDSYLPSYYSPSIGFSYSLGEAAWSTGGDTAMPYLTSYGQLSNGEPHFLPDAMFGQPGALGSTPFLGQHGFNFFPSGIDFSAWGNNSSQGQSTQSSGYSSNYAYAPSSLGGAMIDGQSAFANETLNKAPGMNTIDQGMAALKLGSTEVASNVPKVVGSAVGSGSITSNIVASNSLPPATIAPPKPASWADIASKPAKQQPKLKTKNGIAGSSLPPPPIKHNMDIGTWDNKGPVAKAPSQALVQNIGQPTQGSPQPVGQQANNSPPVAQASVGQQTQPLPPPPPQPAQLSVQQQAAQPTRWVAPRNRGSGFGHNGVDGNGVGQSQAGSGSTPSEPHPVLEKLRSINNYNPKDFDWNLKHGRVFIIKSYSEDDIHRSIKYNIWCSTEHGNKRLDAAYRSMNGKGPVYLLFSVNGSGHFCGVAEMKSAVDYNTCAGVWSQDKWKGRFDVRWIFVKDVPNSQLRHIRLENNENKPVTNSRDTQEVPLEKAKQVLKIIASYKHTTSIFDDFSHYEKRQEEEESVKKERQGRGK
UniProt Q9BW85: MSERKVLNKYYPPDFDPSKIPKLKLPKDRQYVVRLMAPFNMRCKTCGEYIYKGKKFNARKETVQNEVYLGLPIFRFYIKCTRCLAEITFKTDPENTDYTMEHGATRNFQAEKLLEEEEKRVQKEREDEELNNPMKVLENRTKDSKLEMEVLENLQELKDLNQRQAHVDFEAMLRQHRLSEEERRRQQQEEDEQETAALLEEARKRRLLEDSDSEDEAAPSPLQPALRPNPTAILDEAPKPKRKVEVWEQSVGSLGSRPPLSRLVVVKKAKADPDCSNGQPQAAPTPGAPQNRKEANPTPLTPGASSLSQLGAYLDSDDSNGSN
UniProt Q96K21: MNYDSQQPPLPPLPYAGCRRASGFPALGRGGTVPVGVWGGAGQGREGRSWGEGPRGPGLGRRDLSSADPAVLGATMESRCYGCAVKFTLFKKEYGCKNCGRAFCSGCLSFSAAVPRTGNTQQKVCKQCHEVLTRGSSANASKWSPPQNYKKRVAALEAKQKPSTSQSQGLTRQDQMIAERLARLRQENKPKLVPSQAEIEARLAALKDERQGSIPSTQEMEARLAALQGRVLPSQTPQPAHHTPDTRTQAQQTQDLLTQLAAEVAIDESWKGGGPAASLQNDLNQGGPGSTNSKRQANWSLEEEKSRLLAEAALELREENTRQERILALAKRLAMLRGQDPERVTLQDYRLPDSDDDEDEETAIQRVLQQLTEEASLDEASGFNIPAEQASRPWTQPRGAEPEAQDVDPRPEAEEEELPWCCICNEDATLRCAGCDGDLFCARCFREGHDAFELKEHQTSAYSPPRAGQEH
UniProt Q9Y2Z4: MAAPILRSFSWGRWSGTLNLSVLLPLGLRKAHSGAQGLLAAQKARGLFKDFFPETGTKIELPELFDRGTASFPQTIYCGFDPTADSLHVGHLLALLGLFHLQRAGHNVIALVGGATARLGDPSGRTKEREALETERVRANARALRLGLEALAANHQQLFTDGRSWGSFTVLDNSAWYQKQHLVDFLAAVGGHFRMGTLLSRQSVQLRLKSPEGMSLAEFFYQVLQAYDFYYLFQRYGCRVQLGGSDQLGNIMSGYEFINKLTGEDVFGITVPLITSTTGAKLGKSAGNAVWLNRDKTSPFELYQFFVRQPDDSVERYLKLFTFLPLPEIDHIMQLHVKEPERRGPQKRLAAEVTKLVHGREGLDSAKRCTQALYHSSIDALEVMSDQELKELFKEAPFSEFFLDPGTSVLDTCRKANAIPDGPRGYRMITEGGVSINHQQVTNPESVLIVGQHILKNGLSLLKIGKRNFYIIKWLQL
UniProt Q6NZY4: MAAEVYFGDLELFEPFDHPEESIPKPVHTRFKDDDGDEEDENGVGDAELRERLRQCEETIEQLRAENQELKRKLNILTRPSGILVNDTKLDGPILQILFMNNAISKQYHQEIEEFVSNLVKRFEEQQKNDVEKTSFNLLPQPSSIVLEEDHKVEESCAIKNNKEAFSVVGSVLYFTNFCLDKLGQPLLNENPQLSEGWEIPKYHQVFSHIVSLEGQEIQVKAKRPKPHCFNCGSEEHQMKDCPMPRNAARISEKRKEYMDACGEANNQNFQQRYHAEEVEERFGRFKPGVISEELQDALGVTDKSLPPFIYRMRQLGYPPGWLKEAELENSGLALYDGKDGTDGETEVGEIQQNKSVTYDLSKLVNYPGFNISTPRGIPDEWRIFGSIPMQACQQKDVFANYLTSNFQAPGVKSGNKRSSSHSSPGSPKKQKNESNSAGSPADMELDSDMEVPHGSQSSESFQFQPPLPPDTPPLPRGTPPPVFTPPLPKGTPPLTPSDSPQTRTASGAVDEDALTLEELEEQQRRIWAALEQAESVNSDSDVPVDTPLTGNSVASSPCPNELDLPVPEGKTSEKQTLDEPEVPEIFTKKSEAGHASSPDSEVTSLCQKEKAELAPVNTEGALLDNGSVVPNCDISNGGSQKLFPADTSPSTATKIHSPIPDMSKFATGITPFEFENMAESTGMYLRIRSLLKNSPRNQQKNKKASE
UniProt Q8IWT0: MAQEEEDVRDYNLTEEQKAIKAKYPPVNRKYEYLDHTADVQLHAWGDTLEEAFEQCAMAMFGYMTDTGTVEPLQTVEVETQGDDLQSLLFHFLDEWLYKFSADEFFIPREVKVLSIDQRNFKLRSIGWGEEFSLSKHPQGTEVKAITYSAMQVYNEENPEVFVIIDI
UniProt Q9UBH6: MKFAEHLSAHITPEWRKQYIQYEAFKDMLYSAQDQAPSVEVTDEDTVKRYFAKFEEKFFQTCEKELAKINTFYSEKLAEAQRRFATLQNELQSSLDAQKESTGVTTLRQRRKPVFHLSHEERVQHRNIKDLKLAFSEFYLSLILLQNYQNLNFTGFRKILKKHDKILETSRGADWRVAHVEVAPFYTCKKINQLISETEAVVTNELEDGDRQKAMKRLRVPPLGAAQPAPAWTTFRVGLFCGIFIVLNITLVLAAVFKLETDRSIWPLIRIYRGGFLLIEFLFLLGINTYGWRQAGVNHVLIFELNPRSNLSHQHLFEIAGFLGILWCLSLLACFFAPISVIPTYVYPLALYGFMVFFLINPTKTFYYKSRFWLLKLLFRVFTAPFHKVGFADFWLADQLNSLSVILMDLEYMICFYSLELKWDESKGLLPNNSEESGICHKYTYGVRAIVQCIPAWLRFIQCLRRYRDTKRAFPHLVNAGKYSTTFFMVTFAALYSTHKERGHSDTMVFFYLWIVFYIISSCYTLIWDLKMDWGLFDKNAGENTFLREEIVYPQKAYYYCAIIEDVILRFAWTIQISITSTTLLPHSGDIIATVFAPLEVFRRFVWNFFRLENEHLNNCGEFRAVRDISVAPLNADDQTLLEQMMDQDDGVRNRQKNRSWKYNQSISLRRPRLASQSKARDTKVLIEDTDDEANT
UniProt Q9H0D6: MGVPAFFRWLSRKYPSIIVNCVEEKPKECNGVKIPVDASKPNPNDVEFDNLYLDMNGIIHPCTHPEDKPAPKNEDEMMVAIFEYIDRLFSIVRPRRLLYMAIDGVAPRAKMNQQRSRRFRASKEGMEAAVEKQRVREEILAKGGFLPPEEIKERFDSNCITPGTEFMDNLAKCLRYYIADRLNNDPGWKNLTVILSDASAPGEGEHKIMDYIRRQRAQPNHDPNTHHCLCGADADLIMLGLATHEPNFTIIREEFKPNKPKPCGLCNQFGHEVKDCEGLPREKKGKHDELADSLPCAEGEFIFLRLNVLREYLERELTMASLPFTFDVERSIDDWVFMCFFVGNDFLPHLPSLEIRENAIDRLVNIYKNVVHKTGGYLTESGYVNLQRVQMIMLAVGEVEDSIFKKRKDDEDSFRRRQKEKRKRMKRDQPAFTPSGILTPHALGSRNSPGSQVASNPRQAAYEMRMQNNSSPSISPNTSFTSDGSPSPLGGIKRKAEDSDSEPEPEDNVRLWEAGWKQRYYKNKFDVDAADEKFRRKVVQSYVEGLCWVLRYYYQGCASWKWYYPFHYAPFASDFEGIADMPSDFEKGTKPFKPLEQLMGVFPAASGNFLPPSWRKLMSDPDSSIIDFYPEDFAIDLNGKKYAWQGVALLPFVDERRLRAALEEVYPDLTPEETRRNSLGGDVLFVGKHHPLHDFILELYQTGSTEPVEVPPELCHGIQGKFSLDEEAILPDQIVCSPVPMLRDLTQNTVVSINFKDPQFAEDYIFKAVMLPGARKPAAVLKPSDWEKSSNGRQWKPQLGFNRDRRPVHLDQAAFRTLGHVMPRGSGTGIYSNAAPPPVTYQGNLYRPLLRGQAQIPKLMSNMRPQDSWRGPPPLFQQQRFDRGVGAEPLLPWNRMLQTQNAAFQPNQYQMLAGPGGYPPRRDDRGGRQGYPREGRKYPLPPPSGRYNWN
UniProt Q7Z739: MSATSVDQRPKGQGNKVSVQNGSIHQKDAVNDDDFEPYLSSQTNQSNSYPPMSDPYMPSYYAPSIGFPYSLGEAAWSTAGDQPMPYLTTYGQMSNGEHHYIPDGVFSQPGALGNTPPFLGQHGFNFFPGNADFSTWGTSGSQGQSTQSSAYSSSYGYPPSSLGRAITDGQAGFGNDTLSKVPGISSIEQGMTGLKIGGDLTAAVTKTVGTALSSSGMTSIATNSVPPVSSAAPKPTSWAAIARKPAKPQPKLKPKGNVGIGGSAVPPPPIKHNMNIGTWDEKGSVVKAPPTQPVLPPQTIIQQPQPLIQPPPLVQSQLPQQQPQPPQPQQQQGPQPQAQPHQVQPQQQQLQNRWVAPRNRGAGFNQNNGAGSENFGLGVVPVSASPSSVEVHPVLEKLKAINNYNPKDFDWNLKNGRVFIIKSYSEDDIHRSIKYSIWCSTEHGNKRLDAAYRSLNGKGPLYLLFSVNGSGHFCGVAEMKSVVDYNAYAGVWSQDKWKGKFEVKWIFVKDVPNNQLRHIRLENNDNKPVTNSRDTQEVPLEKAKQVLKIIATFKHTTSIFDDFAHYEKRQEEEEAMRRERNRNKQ
UniProt Q8NBI6: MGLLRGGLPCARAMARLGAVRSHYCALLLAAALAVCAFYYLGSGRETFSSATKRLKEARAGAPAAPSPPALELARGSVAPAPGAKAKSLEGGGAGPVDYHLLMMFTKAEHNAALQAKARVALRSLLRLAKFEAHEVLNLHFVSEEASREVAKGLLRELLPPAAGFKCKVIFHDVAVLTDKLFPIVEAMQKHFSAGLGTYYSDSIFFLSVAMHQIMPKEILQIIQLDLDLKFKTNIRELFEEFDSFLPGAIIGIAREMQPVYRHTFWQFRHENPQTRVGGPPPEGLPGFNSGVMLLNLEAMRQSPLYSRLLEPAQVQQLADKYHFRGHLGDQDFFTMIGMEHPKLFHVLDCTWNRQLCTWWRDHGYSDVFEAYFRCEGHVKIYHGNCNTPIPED
UniProt P54577: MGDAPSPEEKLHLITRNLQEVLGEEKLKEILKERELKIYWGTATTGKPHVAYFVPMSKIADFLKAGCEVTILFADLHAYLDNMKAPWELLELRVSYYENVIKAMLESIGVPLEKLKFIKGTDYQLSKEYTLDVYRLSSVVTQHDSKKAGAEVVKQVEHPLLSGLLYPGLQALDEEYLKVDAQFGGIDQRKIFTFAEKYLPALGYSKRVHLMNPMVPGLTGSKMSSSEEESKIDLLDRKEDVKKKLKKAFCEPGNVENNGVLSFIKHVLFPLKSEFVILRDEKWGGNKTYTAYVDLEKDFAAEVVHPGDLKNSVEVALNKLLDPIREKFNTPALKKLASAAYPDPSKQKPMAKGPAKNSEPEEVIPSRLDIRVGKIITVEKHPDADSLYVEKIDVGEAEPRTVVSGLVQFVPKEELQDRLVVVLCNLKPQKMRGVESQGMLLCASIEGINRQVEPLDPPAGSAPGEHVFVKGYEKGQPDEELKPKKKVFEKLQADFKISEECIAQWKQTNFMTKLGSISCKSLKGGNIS

compound: C[C@H](C1=CC=C(C=C1)C(=O)NC2=C3C=CNC3=NC=C2)N; test: log2 fold change, soluble protein after heating vs DMSO (PISA); higher = thermal stabilisation; K562 cells, 10 uM, 30 min; active = over 0.2 and 3.5 SD of the protein, either way, in both replicates (recomputed)
Summary of the method: (§1)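 Quantification of soluble protein used TMTpro 16plex LC-MS/MS, with channel sums equalised. Samples were the supernatant after 21,000xg for 90 min of pooled aliquots from K562 cells (2×10^6 cells/mL) treated with 10 μM compound for 30 min, heated for 3 min over 48°C-58°C, and extracted in PBS with 0.5% NP-40 at 4°C. Values, from duplicates, describe thermal stability against control samples on a log2 fold-change scale.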

log2 fold change, inactive:
ZNF24 (UniProt P17028) 0.198
ZFAND2B (UniProt Q8WV99) 0.04
YME1L1 (UniProt Q96TA2) 0.017
YIF1B (UniProt Q5BJH7) 0.103
YEATS4 (UniProt O95619) -0.013
YWHAH (UniProt Q04917) -0.043
YKT6 (UniProt O15498) -0.022
YTHDF2 (UniProt Q9Y5A9) 0.006
ZCCHC3 (UniProt Q9NUD5) 0.294
YJU2 (UniProt Q9BW85) -0.054
ZFYVE16 (UniProt Q7Z3T8) -0.066
ZFYVE19 (UniProt Q96K21) -0.046
YWHAE (UniProt P62258) -0.037
ZDHHC18 (UniProt Q9NUE0) -0.152
ZFYVE27 isoform 2 (UniProt Q5T4F4) -0.008
YARS2 (UniProt Q9Y2Z4) -0.074
YWHAG (UniProt P61981) -0.058
ZCCHC8 (UniProt Q6NZY4) -0.031
ZBTB8OS (UniProt Q8IWT0) 0.176
ZC3H4 (UniProt Q9UPT8) 0.288
XPR1 (UniProt Q9UBH6) -0.047
XPO7 (UniProt E7ESC6) -0.086
XRN2 (UniProt Q9H0D6) 0.131
ZC3HAV1 (UniProt Q7Z2W4) 0.463
YTHDF3 (UniProt Q7Z739) -0.018
YDJC (UniProt A8MPS7) -0.067
YIPF3 (UniProt Q9GZM5) -0.05
XXYLT1 (UniProt Q8NBI6) 0.048
ZFR (UniProt Q96KR1) 0.372
YARS (UniProt P54577) 0.117
ZFYVE1 (UniProt Q9HBF4) 0.007
XPO4 (UniProt Q9C0E2) -0.059
YRDC (UniProt Q86U90) -0.079
ZNF148 (UniProt Q9UQR1) 0.045

compound: C[C@H](Nc1ncnc2nc[nH]c12)c1cc2cccc(Cl)c2c(=O)n1-c1ccccc1 [duvelisib]; test: as above
Summary of the method: as §1

log2 fold change, inactive:
ZNF24 (UniProt P17028) -0.061
ZFAND2B (UniProt Q8WV99) -0.046
YME1L1 (UniProt Q96TA2) 0
YIF1B (UniProt Q5BJH7) 0.144
YEATS4 (UniProt O95619) -0.011
YWHAH (UniProt Q04917) -0.024
YKT6 (UniProt O15498) 0.082
YTHDF2 (UniProt Q9Y5A9) -0.017
ZCCHC3 (UniProt Q9NUD5) -0.103
YJU2 (UniProt Q9BW85) 0.079
ZFYVE16 (UniProt Q7Z3T8) 0.002
ZFYVE19 (UniProt Q96K21) 0.008
YWHAE (UniProt P62258) 0
ZDHHC18 (UniProt Q9NUE0) 0.073
ZFYVE27 isoform 2 (UniProt Q5T4F4) 0.035
YARS2 (UniProt Q9Y2Z4) 0.122
YWHAG (UniProt P61981) -0.079
ZCCHC8 (UniProt Q6NZY4) 0.023
ZBTB8OS (UniProt Q8IWT0) 0.128
ZC3H4 (UniProt Q9UPT8) -0.156
XPR1 (UniProt Q9UBH6) 0.023
XPO7 (UniProt E7ESC6) 0.025
XRN2 (UniProt Q9H0D6) 0.02
ZC3HAV1 (UniProt Q7Z2W4) -0.104
YTHDF3 (UniProt Q7Z739) 0.014
YDJC (UniProt A8MPS7) 0.027
YIPF3 (UniProt Q9GZM5) 0.073
XXYLT1 (UniProt Q8NBI6) 0.003
ZFR (UniProt Q96KR1) -0.072
YARS (UniProt P54577) -0.007
ZFYVE1 (UniProt Q9HBF4) 0.02
XPO4 (UniProt Q9C0E2) 0.036
YRDC (UniProt Q86U90) 0.069
ZNF148 (UniProt Q9UQR1) -0.061

compound: Cc1cc(Nc2cc(CN3CCOCC3)c3nc(C)c(Cc4ccc(Cl)cc4F)n3n2)n[nH]1 [gandotinib]; test: as above
Summary of the method: as §1

log2 fold change, inactive:
ZNF24 (UniProt P17028) 0.22
ZFAND2B (UniProt Q8WV99) 0.006
YME1L1 (UniProt Q96TA2) 0.015
YIF1B (UniProt Q5BJH7) 0.075
YEATS4 (UniProt O95619) -0.031
YWHAH (UniProt Q04917) -0.033
YKT6 (UniProt O15498) 0.025
YTHDF2 (UniProt Q9Y5A9) 0.045
ZCCHC3 (UniProt Q9NUD5) 0.199
YJU2 (UniProt Q9BW85) 0.056
ZFYVE16 (UniProt Q7Z3T8) -0.009
ZFYVE19 (UniProt Q96K21) -0.019
YWHAE (UniProt P62258) 0.011
ZDHHC18 (UniProt Q9NUE0) 0.195
ZFYVE27 isoform 2 (UniProt Q5T4F4) -0.057
YARS2 (UniProt Q9Y2Z4) 0.079
YWHAG (UniProt P61981) 0.045
ZCCHC8 (UniProt Q6NZY4) 0.048
ZBTB8OS (UniProt Q8IWT0) -0.042
ZC3H4 (UniProt Q9UPT8) 0.287
XPR1 (UniProt Q9UBH6) -0.034
XPO7 (UniProt E7ESC6) -0.082
XRN2 (UniProt Q9H0D6) -0.006
ZC3HAV1 (UniProt Q7Z2W4) 0.252
YTHDF3 (UniProt Q7Z739) -0.046
YDJC (UniProt A8MPS7) 0.046
YIPF3 (UniProt Q9GZM5) 0
XXYLT1 (UniProt Q8NBI6) 0.037
ZFR (UniProt Q96KR1) -0.106
YARS (UniProt P54577) -0.041
ZFYVE1 (UniProt Q9HBF4) -0.082
XPO4 (UniProt Q9C0E2) -0.116
YRDC (UniProt Q86U90) -0.048
ZNF148 (UniProt Q9UQR1) -0.1
